In the test the target is T1, RCAR1/PYL9 bait (pGBKT7) (Arabidopsis) (UniProt Q84MC7).
T1 sequence: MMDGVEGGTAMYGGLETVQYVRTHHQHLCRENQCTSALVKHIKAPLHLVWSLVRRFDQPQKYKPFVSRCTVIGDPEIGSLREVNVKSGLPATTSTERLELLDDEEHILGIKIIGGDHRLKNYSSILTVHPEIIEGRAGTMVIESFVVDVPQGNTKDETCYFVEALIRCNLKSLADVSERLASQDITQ
Nature of the test: two-hybrid; AH109 yeast; baits in pGBKT7, preys in pGADT7; growth on SD/-L-T-H-A and X-α-Gal staining, 3 days at 30 °C; with or without 10 μM ABA in the medium.

These are yes or no findings as the source states them, for the method shown. Binding can be weak; no strength is given.

Drawing on paper PMC4057743, “Arabidopsis ABA Receptor RCAR1/PYL9 Interacts with an R2R3-Type MYB Transcription Factor, AtMYB44” (International Journal of Molecular Sciences, 2014), this text covers binding for one substance.

In the case of “full-length AtMYB70 prey (pGADT7) (Arabidopsis)”, the binding entry is recorded as “binds”.
